Source: PubChem BioAssay AID504791 (Drosophila RNAi Screening Center, 2011)
The deposit covers about 23,000 reagents; below is an unselected part of those with a known target gene and a result. Of all reagents, 199 (0.86%) got an active call. 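Plate-scaled ratios behind the calls are not deposited; printed light signals are raw; many rows marked increased or decreased are still called inactive.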 The numbers tell different reagents against one gene apart. Names joined by + are all predicted targets of the reagent. Not stated in the record: the direction of the score.

Test: 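Factors in Argonaute-based small RNA production and activity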 (primary screen)
Cells: Drosophila S2-derived reporter cells
Knock-down reagent: long dsRNA against Drosophila genes, about 150-250 ng dsRNA per well (siRNA assay); about 80-120 ng (miRNA assay)
Duration: about 5 days (siRNA assay); about 4 days (miRNA assay)
Conditions: copper sulfate induction of reporters: 25 µM (siRNA assay); 200 mM stated (miRNA assay), 1-2 days before reading
Read-out: 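Per-well ratio of Renilla over firefly light, expressed relative to that plate's average ratio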
Call rule: 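First-pass picks had plate-scaled ratios over 1.5 for the siRNA assay, over 1.6 for the miRNA assay, or under 0.6; two distinct dsRNAs had to score alike on retest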

no.	Target gene	dsRNA no.	miRNA reporter change	stable assay Renilla, run 1 (luminescence)	stable assay firefly, run 1 (luminescence)	outcome
1	Takl2 (Tak1-like 2)	1		5970	2.74e5	inactive
2	wry (weary)	1		7318	5.48e5	inactive
3	wry (weary)	2		7462	5.49e5	inactive
4	wry (weary)	3		4739	4.71e5	inactive
5	Dic3	1		6675	4.56e5	inactive
6	CG11293 (retired record)	1		6415	3.68e5	inactive
7	hfp (half pint)	1	reporter ratio lowered past the hit cutoff	5939	4.68e5	inactive
8	hfp (half pint)	2		5867	4.51e5	inactive
9	hfp (half pint)	3		3999	3.71e5	inactive
10	hfp (half pint)	4	reporter ratio lowered past the hit cutoff			inactive
11	LysB (Lysozyme B)	1		5854	3.30e5	inactive
12	CG14153	1		5938	4.13e5	inactive
13	CG14153	2		4355	3.67e5	inactive
14	mRpS6 (mitochondrial ribosomal protein S6)	1		5299	4.56e5	inactive
15	CG11983	1		7167	4.20e5	inactive
16	Lip4 (Lipase 4)	1		7751	4.06e5	inactive
17	Cog2 (Component of oligomeric golgi complex 2)	1		5994	3.46e5	inactive
18	Cpr47Ed (Cuticular protein 47Ed)	1		6911	4.34e5	inactive
19	CAH6 (Carbonic anhydrase 6)	1		6818	4.20e5	inactive
20	CG2964	1		7075	4.59e5	inactive
21	eIF4E3 (eukaryotic translation initiation factor 4E3)	1		8410	4.98e5	inactive
22	CG13220	1		5436	3.32e5	inactive
23	salr (spalt-related)	1		6751	3.44e5	inactive
24	CG30259	1		4698	2.47e5	inactive
25	CG30259	2		6072	3.86e5	inactive
26	Rpp20 + CG33932	1		5983	4.94e5	inactive
27	mip130 (Myb-interacting protein 130)	1		5455	3.83e5	inactive
28	Cpr65Eb (Cuticular protein 65Eb)	1		6740	4.61e5	inactive
29	Pfdn4 (Prefoldin 4)	1		5867	3.13e5	inactive
30	Vm32E (Vitelline membrane 32E)	1		8005	3.57e5	inactive
31	B-H2 (BarH2)	1		4432	2.91e5	inactive
32	B-H2 (BarH2)	2		4556	3.53e5	inactive
33	RIC-3 (RIC3 acetylcholine receptor chaperone)	1		17347	3.70e5	inactive
34	RIC-3 (RIC3 acetylcholine receptor chaperone)	2		6362	4.73e5	inactive

Reprinted from the entries so far for reference:
no.	Target gene	dsRNA no.	miRNA reporter change	stable assay Renilla, run 1 (luminescence)	stable assay firefly, run 1 (luminescence)	outcome
8	hfp (half pint)	2		5867	4.51e5	inactive
9	hfp (half pint)	3		3999	3.71e5	inactive
10	hfp (half pint)	4	reporter ratio lowered past the hit cutoff			inactive
11	LysB (Lysozyme B)	1		5854	3.30e5	inactive
